# From the supplement of paper PMC12067093, “Discovery and optimisation of a covalent ligand for TRIM25 and its application to targeted protein ubiquitination” (Chemical Science, 2025)
# Sequences of proteins named here, by UniProt entry; tags and fusion partners are left off. A change or cut given only in a name is not applied to a line headed by its entry.
# UniProt Q00341: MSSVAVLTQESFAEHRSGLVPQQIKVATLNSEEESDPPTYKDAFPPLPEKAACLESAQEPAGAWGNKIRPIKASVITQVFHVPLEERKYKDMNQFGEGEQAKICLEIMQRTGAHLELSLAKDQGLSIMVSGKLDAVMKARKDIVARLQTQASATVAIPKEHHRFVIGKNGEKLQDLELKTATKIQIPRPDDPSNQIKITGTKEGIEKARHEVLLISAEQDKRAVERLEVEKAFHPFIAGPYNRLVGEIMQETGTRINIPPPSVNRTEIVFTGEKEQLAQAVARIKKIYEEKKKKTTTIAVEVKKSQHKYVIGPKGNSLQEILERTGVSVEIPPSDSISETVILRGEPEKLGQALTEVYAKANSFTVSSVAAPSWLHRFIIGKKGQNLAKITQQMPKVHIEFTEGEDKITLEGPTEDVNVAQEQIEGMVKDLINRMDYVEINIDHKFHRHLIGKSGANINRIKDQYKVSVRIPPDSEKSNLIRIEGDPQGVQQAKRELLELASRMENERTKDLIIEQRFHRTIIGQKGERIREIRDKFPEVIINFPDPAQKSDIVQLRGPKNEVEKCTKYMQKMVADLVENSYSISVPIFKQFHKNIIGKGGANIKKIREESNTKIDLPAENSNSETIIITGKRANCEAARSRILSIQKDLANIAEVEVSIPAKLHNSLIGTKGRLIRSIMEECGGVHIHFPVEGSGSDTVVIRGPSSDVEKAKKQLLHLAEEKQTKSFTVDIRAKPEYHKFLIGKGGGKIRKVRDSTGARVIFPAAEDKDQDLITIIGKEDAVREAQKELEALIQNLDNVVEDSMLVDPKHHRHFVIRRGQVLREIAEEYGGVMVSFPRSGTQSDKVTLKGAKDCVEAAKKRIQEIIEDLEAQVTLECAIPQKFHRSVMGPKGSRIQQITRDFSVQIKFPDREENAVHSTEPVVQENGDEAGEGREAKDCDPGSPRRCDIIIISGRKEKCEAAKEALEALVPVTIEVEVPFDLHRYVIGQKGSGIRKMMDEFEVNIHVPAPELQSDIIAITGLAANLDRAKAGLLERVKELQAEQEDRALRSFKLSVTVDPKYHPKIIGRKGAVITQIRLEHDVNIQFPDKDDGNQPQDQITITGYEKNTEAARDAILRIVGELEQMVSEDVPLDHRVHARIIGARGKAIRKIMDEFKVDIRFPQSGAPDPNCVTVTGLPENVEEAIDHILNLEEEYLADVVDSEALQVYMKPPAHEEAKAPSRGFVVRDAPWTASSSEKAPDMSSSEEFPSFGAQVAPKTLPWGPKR
# UniProt Q9BW72: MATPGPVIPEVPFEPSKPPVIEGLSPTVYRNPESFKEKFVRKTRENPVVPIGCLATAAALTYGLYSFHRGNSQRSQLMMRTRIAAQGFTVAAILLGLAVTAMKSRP
# UniProt Q5GLZ8: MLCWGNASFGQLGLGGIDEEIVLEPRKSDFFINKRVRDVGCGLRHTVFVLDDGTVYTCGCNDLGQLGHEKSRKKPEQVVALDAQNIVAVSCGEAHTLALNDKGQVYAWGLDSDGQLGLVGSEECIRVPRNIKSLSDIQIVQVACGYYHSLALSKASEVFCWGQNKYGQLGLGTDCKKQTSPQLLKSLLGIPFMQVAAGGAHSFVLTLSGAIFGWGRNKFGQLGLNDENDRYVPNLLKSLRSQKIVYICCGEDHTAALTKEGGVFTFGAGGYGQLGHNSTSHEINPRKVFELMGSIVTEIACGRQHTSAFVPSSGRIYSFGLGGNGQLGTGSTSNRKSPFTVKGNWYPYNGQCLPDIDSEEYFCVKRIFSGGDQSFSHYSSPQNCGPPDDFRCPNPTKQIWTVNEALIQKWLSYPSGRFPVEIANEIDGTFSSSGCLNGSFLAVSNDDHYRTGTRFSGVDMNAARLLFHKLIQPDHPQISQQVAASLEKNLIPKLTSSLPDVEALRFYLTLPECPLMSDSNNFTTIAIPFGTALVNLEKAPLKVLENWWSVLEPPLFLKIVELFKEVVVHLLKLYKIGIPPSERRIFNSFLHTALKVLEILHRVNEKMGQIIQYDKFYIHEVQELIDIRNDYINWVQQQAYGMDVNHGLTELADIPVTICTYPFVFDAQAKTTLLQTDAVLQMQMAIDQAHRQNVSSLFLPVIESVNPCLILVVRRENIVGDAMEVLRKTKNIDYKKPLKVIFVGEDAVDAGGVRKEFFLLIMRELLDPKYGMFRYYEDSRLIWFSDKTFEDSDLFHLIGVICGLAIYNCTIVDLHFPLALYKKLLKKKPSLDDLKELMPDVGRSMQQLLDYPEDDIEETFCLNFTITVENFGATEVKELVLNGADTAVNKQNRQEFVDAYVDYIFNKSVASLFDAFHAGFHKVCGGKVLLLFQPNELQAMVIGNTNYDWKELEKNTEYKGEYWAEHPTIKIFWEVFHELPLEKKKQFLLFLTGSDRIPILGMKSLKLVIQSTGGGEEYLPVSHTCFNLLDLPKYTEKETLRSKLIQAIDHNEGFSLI
# UniProt Q9ULT8: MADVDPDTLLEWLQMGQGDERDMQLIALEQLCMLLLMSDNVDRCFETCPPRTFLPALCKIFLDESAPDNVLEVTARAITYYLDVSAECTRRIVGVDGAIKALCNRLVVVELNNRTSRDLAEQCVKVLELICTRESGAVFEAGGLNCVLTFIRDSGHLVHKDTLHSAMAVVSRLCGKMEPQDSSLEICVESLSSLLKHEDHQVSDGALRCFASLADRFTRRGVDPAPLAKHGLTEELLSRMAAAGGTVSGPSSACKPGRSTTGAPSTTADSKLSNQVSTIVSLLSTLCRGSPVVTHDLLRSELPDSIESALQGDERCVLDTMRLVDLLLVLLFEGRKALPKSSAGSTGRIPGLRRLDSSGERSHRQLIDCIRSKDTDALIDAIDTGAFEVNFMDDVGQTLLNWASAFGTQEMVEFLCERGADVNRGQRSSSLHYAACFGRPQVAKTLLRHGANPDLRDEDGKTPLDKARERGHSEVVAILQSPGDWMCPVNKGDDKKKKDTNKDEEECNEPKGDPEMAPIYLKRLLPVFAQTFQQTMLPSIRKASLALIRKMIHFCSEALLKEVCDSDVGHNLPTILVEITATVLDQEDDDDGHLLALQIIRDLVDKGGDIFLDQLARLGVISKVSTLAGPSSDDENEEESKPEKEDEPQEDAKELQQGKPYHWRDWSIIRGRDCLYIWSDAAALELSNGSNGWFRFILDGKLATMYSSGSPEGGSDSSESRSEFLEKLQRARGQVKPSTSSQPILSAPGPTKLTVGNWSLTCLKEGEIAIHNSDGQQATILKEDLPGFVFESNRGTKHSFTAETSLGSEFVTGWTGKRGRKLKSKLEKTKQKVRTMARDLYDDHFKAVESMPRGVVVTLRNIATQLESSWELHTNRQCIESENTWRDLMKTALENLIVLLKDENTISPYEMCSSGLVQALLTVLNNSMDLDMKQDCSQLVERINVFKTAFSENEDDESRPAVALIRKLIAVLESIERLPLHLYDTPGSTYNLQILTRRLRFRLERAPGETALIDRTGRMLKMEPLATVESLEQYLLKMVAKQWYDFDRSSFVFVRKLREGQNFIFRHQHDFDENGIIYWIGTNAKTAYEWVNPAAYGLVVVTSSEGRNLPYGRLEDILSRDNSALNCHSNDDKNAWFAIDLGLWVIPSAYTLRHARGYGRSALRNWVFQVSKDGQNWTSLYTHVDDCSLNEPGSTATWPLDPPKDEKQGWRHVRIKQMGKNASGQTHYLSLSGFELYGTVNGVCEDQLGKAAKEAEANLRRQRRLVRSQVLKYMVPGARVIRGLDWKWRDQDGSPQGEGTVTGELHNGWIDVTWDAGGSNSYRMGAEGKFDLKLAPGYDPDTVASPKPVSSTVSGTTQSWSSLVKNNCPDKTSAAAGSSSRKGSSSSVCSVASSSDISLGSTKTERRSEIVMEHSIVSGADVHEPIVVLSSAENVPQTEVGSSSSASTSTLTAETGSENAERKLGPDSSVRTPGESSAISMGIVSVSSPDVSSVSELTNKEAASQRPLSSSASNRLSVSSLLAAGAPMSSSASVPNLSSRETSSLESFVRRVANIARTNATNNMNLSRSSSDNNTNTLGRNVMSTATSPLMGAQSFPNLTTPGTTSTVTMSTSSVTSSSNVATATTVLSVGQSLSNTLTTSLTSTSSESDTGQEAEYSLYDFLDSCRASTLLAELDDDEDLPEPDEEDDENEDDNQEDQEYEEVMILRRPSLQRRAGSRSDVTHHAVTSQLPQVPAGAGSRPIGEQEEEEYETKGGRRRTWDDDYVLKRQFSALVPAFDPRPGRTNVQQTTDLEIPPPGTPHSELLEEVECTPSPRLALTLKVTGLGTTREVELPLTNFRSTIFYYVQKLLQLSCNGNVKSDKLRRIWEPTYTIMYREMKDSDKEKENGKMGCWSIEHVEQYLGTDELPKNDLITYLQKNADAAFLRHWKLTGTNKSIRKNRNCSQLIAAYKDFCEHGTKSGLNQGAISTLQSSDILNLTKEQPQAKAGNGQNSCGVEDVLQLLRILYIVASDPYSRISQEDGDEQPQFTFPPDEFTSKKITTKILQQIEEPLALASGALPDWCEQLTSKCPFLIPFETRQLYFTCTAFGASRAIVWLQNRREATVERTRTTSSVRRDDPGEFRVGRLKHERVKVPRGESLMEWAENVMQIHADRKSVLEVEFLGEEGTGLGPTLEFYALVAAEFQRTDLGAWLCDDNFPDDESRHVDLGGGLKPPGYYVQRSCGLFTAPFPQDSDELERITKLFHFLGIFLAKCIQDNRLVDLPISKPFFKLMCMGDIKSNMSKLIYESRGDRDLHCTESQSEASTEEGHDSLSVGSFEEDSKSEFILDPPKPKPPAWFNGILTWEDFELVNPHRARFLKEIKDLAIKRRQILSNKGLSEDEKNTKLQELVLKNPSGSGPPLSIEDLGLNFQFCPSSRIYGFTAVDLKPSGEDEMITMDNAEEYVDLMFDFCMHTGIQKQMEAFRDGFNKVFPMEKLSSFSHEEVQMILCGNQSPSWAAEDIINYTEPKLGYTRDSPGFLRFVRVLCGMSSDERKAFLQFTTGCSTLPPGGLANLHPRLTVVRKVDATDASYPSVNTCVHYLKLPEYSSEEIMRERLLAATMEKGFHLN
# UniProt P08631: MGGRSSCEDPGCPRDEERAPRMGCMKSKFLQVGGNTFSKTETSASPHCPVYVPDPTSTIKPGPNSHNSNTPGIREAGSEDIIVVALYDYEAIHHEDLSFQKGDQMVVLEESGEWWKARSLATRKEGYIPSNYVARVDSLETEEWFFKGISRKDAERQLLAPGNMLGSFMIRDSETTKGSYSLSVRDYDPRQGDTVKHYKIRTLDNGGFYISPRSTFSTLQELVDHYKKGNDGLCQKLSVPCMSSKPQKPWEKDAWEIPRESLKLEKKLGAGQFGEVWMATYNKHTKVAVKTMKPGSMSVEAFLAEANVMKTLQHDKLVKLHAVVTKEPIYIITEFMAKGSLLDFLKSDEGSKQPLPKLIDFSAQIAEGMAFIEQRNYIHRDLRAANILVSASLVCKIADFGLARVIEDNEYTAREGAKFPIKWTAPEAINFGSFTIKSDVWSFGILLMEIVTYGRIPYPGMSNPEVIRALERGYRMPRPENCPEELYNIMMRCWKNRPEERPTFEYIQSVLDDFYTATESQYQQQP
# UniProt P19367: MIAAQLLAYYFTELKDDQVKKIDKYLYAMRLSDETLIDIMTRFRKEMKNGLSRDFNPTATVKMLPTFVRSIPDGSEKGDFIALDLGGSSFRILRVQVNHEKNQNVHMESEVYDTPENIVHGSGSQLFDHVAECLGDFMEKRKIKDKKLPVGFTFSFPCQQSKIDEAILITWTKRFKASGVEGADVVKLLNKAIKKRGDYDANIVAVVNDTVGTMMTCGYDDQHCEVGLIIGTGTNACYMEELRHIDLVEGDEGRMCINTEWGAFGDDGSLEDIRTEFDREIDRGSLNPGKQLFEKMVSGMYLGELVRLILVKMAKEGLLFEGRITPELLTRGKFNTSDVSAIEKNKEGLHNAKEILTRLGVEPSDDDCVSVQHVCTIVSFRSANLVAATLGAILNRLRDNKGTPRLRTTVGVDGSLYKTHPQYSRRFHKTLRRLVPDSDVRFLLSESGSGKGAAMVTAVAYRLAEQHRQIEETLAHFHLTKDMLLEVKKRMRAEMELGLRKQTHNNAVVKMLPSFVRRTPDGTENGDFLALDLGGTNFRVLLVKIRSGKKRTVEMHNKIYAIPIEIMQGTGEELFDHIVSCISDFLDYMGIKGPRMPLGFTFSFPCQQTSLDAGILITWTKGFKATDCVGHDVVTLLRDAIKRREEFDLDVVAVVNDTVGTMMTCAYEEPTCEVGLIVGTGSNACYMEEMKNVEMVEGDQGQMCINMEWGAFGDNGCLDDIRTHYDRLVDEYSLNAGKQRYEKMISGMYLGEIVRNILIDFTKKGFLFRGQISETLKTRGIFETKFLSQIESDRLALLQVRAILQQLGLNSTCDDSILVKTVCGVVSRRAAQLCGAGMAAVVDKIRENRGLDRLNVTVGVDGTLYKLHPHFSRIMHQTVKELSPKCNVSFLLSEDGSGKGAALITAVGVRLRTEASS
# Some of the results follow.
# Compound: CC1Cc2ccccc2N1C(=O)C1CCCN(C1)C(=O)CCl (mixture of isomers) [TRIM25 ligand 11 (diastereomer mixture)]
# Experiment: probe-labelled cysteine peptide fold change vs DMSO (competition) (log2 fold change); higher = less target engagement (more negative = stronger competition)
# Settings: THP-1, incubation time: 4 h
# 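Further: competitive chemoproteomic profiling in live THP-1 cells with an iodoacetamide desthiobiotin (IA-DTB) probe, comparing probe-labelled peptide intensities in compound-treated cells against DMSO-treated controls.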
Target,probe-labelled cysteine peptide fold change (10 µM),probe-labelled cysteine peptide fold change (50 µM)
HECTD4_Q9Y4D8_3446_CACIDVR (UniProt Q9Y4D8),0.0852,0.059
HEATR5B_Q9P2D3_471_CVAVALPFQLTPFLDR (UniProt Q9P2D3),-0.108,0.0569
HDAC10_Q969S8_102_ETQVLGKEELQALSGQFDAIYFHPSTFHCAR (UniProt Q969S8),0.167,-0.202
HELB_Q8NG08_127_HICALFLK (UniProt Q8NG08),-0.086,0.0468
HELB_Q8NG08_350_SCVFPYDLYHAER (UniProt Q8NG08),-0.151,0.0954
HDLBP_Q00341_104_ICLEIMQR (UniProt Q00341),0.0329,0.146
HEATR5B_Q9P2D3_870_CAAGEALGR (UniProt Q9P2D3),-0.0752,-0.0703
HIGD2A_Q9BW72_53_ENPVVPIGCLATAAALTYGLYSFHR (UniProt Q9BW72),0.118,-0.132
HBS1L_Q9Y450_469_GLCLLEQIDSFKPPQR (UniProt Q9Y450),-0.0197,-0.101
HIBCH_Q6NVY1_95_AFCAGGDIR (UniProt Q6NVY1),-0.0665,0.0371
HLA-C_P04222_345_GGSCSQAASSNSAQGSDESLIACKA (UniProt P04222),-0.155,-0.141
HLA-E_P13747_185_AYLEDTCVEWLHK (UniProt P13747),0.0236,0.212
HECTD4_Q9Y4D8_3836_ELQNVECVTAVR (UniProt Q9Y4D8),0.234,-0.027
HDLBP_Q00341_636_ANCEAAR (UniProt Q00341),0.239,0.338
HERC4_Q5GLZ8_58+60_HTVFVLDDGTVYTCGCNDLGQLGHEK (UniProt Q5GLZ8),0.0474,-0.187
HECTD1_Q9ULT8_131_VLELICTR (UniProt Q9ULT8),0.0591,0.175
HINT3_Q9NQE9_73_QDPGTELLHCENEDLICFK (UniProt Q9NQE9),-0.0864,-0.178
HEATR5A_Q86XA9_1635_QIICAAQEHVK (UniProt Q86XA9),-0.123,-0.0121
HERC2_O95714_1037_ISSCLDFEQHSR (UniProt O95714),-0.109,0.189
HGS_O14964_166_APDWVDAEECHR (UniProt O14964),0.0587,0.013
HEATR3_Q7Z4Q2_57_ECACAGLAR (UniProt Q7Z4Q2),-0.0844,-0.181

# Laid out differently: entries from further up
Target	probe-labelled cysteine peptide fold change (10 µM)	probe-labelled cysteine peptide fold change (50 µM)
HDAC10_Q969S8_102_ETQVLGKEELQALSGQFDAIYFHPSTFHCAR (UniProt Q969S8)	0.167	-0.202
HELB_Q8NG08_127_HICALFLK (UniProt Q8NG08)	-0.086	0.0468
HBS1L_Q9Y450_469_GLCLLEQIDSFKPPQR (UniProt Q9Y450)	-0.0197	-0.101
HIBCH_Q6NVY1_95_AFCAGGDIR (UniProt Q6NVY1)	-0.0665	0.0371
HEATR5A_Q86XA9_1635_QIICAAQEHVK (UniProt Q86XA9)	-0.123	-0.0121
HGS_O14964_166_APDWVDAEECHR (UniProt O14964)	0.0587	0.013

# The list goes on:

Target,probe-labelled cysteine peptide fold change (10 µM),probe-labelled cysteine peptide fold change (50 µM)
HERC4_Q5GLZ8_175_YGQLGLGTDCKK (UniProt Q5GLZ8),-0.0394,-0.0946
HERC1_Q15751_3849_QQGVLGLNMAPCMR (UniProt Q15751),-0.0714,0.0192
HERC4_Q5GLZ8_160_ASEVFCWGQNK (UniProt Q5GLZ8),-0.0496,0.0671
HECTD1_Q9ULT8_146_ESGAVFEAGGLNCVLTFIR (UniProt Q9ULT8),0.264,-0.0494
HCK_P08631_234_GNDGLCQK (UniProt P08631),0.0165,-0.065
HLA-E_P13747_280_YTCHVQHEGLPEPVTLR (UniProt P13747),-0.022,0.000676
HDAC2_Q92769_13_KVCYYYDGDIGNYYYGQGHPMK (UniProt Q92769),0.0694,-0.0187
HIGD2A_Q9BW72_53_TRENPVVPIGCLATAAALTYGLYSFHR (UniProt Q9BW72),0.153,0.158
HCCS_P53701_178_WEALHAAECPCGPSLIR (UniProt P53701),0.00235,-0.016
HEATR3_Q7Z4Q2_173_NSIENIANETVNVLWNICECSSR (UniProt Q7Z4Q2),0.0592,0.206
HK1_P19367_368+375_LGVEPSDDDCVSVQHVCTIVSFR (UniProt P19367),-0.199,-0.036
HGS_O14964_190_ACGQIFCGK (UniProt O14964),-0.0284,-0.0925
HLA-A_P01892_125_MYGCDVGSDWR (UniProt P01892),-0.0353,-0.0961
HEATR3_Q7Z4Q2_20_RPQFSPTGDCQAEAAAAANGTGGEEDDGPAAELLEK (UniProt Q7Z4Q2),0.15,-0.284
HERC2_O95714_4204_VECGSQFSVALTK (UniProt O95714),0.0159,0.00567
HEATR3_Q7Z4Q2_655_GNYSTDQLCVLDNVK (UniProt Q7Z4Q2),0.0496,-0.071
HK3_P52790_269_VCVSVEWGSFSDDGALGPVLTTFDHTLDHESLNPGAQR (UniProt P52790),0.242,-0.161
HERC4_Q5GLZ8_248+249_IVYICCGEDHTAALTK (UniProt Q5GLZ8),0.0171,0.0424
HDGFL2_Q7Z4V5_496_CLNALEELGTLQVTSQILQK (UniProt Q7Z4V5),0.029,-0.13
HCFC1_P51610_1895_TCLPGFPGAPCAIK (UniProt P51610),0.00642,-0.0805
HECTD1_Q9ULT8_1855_LLQLSCNGNVK (UniProt Q9ULT8),-0.105,0.169

Target,probe-labelled cysteine peptide fold change (10 µM),probe-labelled cysteine peptide fold change (50 µM)
HERC2_O95714_3979_VPTPCEALATLRPVQLIGGEQTLFAVTADGK (UniProt O95714),-0.393,0.0471
HCCS_P53701_66_AYEYVECPIR (UniProt P53701),-0.0751,-0.317
HEATR6_Q6AI08_232_SSDMDDITFCMLLQNALK (UniProt Q6AI08),-0.0289,-0.0445
HCK_P08631_395_AANILVSASLVCK (UniProt P08631),0.0799,0.0391
HERC5_Q9UII4_468_DWITNMITTCLK (UniProt Q9UII4),-0.0109,0.0155
HERC2_O95714_33_DGLCGLWNEMVK (UniProt O95714),-0.029,0.0117
HELZ_P42694_80_NYVQADEDCR (UniProt P42694),0.0578,-0.0565
HAUS6_Q7Z4H7_743_ILDHLEVSCNKPSTNK (UniProt Q7Z4H7),-0.00729,-0.047
HK1_P19367_628_ATDCVGHDVVTLLR (UniProt P19367),0.0386,0.037
HK1_P19367_375_LGVEPSDDDCVSVQHVCTIVSFR (UniProt P19367),0.0282,-0.149
HDGF_P51858_108_SCVEEPEPEPEAAEGDGDK (UniProt P51858),-0.0149,-0.235
HDAC4_P56524_669_HQCTCGSSSSHPEHAGR (UniProt P56524),0.168,0.143
HIP1_O00291_220_SVSVTAAGQCR (UniProt O00291),-0.0445,0.00279
HECTD1_Q9ULT8_187_MEPQDSSLEICVESLSSLLK (UniProt Q9ULT8),-0.019,-0.114
HDAC6_Q9UBN7_417_ALAEGVSASLHTLLGDPCPMLESPGAPCR (UniProt Q9UBN7),-0.0346,-0.0275
HCFC2_Q9Y5Z7_125_VKPHPPPSGLPPCPR (UniProt Q9Y5Z7),-0.227,0.0361
HEBP1_Q9NRV9_168_GDIYFCTGYDPPMKPYGR (UniProt Q9NRV9),-0.405,-0.374
HIP1R_O75146_906_VVLHTGKYEELIVCSHEIAASTAQLVAASK (UniProt O75146),0.164,0.189
HDAC6_Q9UBN7_407_ALAEGVSASLHTLLGDPCPMLESPGAPCR (UniProt Q9UBN7),0.00604,-0.069
HECTD3_Q5T447_592_DMYVPNPSCR (UniProt Q5T447),0.131,0.0493
HEATR5B_Q9P2D3_616_AGALCAMR (UniProt Q9P2D3),0.0353,0.091
